{"source": "the supplement of paper PMC9744312", "note": "Structures can show the parent of a compound that is named as a salt. The list shows a part of the results. This is a noisy data set.", "data": [{"tested_on": "Peyronie's disease tunica albuginea primary fibroblasts", "assay": "inhibition of TGF-beta1-induced alpha-SMA expression (myofibroblast transformation), relative to TGF-beta1-only and untreated controls; higher = stronger inhibition of myofibroblast transformation", "settings": "10 µM; TGF-beta1 10 ng/mL; 72 h", "units": {"inhibition of TGF-beta1-induced alpha-SMA expression": "%"}, "values": [{"smiles": "Cc1cc(/C=C/C#N)cc(C)c1Nc1ccnc(Nc2ccc(C#N)cc2)n1", "note": "[Rilpivirine]", "inhibition of TGF-beta1-induced alpha-SMA expression": 37.2}, {"smiles": "CCOc1cc2ncc(C#N)c(Nc3ccc(F)c(Cl)c3)c2cc1NC(=O)/C=C/CN(C)C", "note": "[Pelitinib (EKB-569)]", "inhibition of TGF-beta1-induced alpha-SMA expression": 99.7}, {"smiles": "Oc1c(Cl)cc(Cl)c(Cl)c1Cc1c(O)c(Cl)cc(Cl)c1Cl", "note": "[Hexachlorophene]", "inhibition of TGF-beta1-induced alpha-SMA expression": "> 100"}, {"smiles": "OC(CNCC(O)C1CCc2cc(F)ccc2O1)C1CCc2cc(F)ccc2O1", "note": "(stereo not drawn) [Nebivolol HCl]", "inhibition of TGF-beta1-induced alpha-SMA expression": 31.8}, {"smiles": "CC(=O)NS(=O)(=O)c1ccc(NC(=O)c2ccccc2C(=O)O)cc1", "note": "[Phthalylsulfacetamide]", "inhibition of TGF-beta1-induced alpha-SMA expression": -4.01}, {"smiles": "NC(=O)c1cccc2cn(-c3ccc([C@@H]4CCCNC4)cc3)nc12", "note": "[Niraparib (MK-4827) tosylate]", "inhibition of TGF-beta1-induced alpha-SMA expression": 40.7}, {"smiles": "NC(=O)c1cccc2cn(-c3ccc([C@@H]4CCCNC4)cc3)nc12", "note": "[Niraparib (MK-4827)]", "inhibition of TGF-beta1-induced alpha-SMA expression": 70.7}, {"smiles": "CC[C@H](C)[C@H](N)C1=N[C@H](C(=O)N[C@@H](CC(C)C)C(=O)N[C@H](CCC(=O)O)C(=O)N[C@H](C(=O)N[C@H]2CCCCNC(=O)[C@H](CC(N)=O)NC(=O)[C@@H](CC(=O)O)NC(=O)[C@H](Cc3cnc[nH]3)NC(=O)[C@@H](Cc3ccccc3)NC(=O)[C@H]([C@@H](C)CC)NC(=O)[C@@H](CCCN)NC2=O)[C@@H](C)CC)CS1", "note": "[Bacitracin]", "inhibition of TGF-beta1-induced alpha-SMA expression": 2.79}, {"smiles": "CN1CCN(CCCN2c3ccccc3Sc3ccc(C(F)(F)F)cc32)CC1", "note": "[Trifluoperazine 2HCl]", "inhibition of TGF-beta1-induced alpha-SMA expression": "> 100"}, {"smiles": "CC(S)C(=O)NCC(=O)O", "note": "(stereo not drawn) [Tiopronin]", "inhibition of TGF-beta1-induced alpha-SMA expression": -14.9}, {"smiles": "COC[C@H]1C[C@@H](c2nc(-c3ccc4c(c3)COc3cc5c(ccc6nc([C@@H]7CC[C@H](C)N7C(=O)[C@@H](NC(=O)OC)C(C)C)[nH]c65)cc3-4)c[nH]2)N(C(=O)[C@H](NC(=O)OC)c2ccccc2)C1", "note": "[Velpatasvir]", "inhibition of TGF-beta1-induced alpha-SMA expression": 5.07}, {"smiles": "CNC[C@H](O)c1ccc(O)c(O)c1", "note": "[Epinephrine bitartrate]", "inhibition of TGF-beta1-induced alpha-SMA expression": -4.8}, {"smiles": "CNC[C@H](O)c1ccc(O)c(O)c1", "note": "[Epinephrine HCl]", "inhibition of TGF-beta1-induced alpha-SMA expression": 38.2}, {"smiles": "Nc1ccn([C@H]2CC[C@@H](CO)O2)c(=O)n1", "note": "[Zalcitabine]", "inhibition of TGF-beta1-induced alpha-SMA expression": 2.78}, {"smiles": "C=CCNC(N)=S", "note": "[Allylthiourea]", "inhibition of TGF-beta1-induced alpha-SMA expression": 24}, {"smiles": "CN(C)CCOC(C)(c1ccccc1)c1ccccn1", "note": "(stereo not drawn) [Doxylamine Succinate]", "inhibition of TGF-beta1-induced alpha-SMA expression": 10.9}, {"smiles": "C[C@@H](O)[C@H]1C(=O)N2C(C(=O)O)=C(S[C@@H]3CN[C@H](CNS(N)(=O)=O)C3)[C@H](C)[C@H]12", "note": "[Doripenem]", "inhibition of TGF-beta1-induced alpha-SMA expression": 32.4}, {"smiles": "C[C@@H](O)[C@H]1C(=O)N2C(C(=O)O)=C(S[C@@H]3CN[C@H](CNS(N)(=O)=O)C3)[C@H](C)[C@H]12", "note": "[Doripenem Hydrate]", "inhibition of TGF-beta1-induced alpha-SMA expression": 48.3}, {"smiles": "Oc1c(I)cc(Cl)c2cccnc12", "note": "[Clioquinol]", "inhibition of TGF-beta1-induced alpha-SMA expression": -37.1}, {"smiles": "CC(C)(C#N)c1cc(Cn2cncn2)cc(C(C)(C)C#N)c1", "note": "[Anastrozole]", "inhibition of TGF-beta1-induced alpha-SMA expression": -46}, {"smiles": "COc1cc2nccc(Oc3ccc(NC(=O)Nc4cc(C)on4)c(Cl)c3)c2cc1OC", "note": "[Tivozanib (AV-951)]", "inhibition of TGF-beta1-induced alpha-SMA expression": -116}, {"smiles": "C(=C\\c1ccccc1)/CN1CCN(C(c2ccccc2)c2ccccc2)CC1", "note": "[Cinnarizine]", "inhibition of TGF-beta1-induced alpha-SMA expression": -23.8}, {"smiles": "C[C@]1(O)C[C@@H](c2nc(-c3ccc4ccc(-c5ccccc5)nc4c3)c3c(N)nccn32)C1", "note": "[Linsitinib (OSI-906)]", "inhibition of TGF-beta1-induced alpha-SMA expression": 1.46}, {"smiles": "O=C([O-])c1ccccc1.[Na+]", "note": "[Sodium benzoate]", "inhibition of TGF-beta1-induced alpha-SMA expression": 10.4}, {"smiles": "O=C(C1CCCCC1)N1CC(=O)N2CCc3ccccc3C2C1", "note": "(stereo not drawn) [Praziquantel]", "inhibition of TGF-beta1-induced alpha-SMA expression": 10.8}, {"smiles": "C[C@@H]1CCO[C@H]2Cn3cc(C(=O)NCc4ccc(F)cc4F)c(=O)c(O)c3C(=O)N12", "inhibition of TGF-beta1-induced alpha-SMA expression": 9.46}, {"smiles": "CO[C@H]1/C=C/O[C@@]2(C)Oc3c(C)c(O)c4c(O)c(cc(O)c4c3C2=O)NC(=O)/C(C)=C\\C=C\\[C@H](C)[C@H](O)[C@@H](C)[C@@H](O)[C@@H](C)[C@H](OC(C)=O)[C@@H]1C", "note": "[Rifamycin sodium salt]", "inhibition of TGF-beta1-induced alpha-SMA expression": 27.4}, {"smiles": "CCC/N=C1\\S/C(=C\\c2ccc(OC[C@H](O)CO)c(Cl)c2)C(=O)N1c1ccccc1C", "note": "[Ponesimod]", "inhibition of TGF-beta1-induced alpha-SMA expression": 35.9}, {"smiles": "CC(C)C[C@H](NC(=O)[C@@H](NC(=O)c1cccc(-c2ccccc2)n1)[C@@H](C)O)B(O)O", "inhibition of TGF-beta1-induced alpha-SMA expression": "> 100"}, {"smiles": "COc1ccc2c(c1)c(CC(=O)O)c(C)n2C(=O)c1ccc(Cl)cc1", "note": "[Indomethacin]", "inhibition of TGF-beta1-induced alpha-SMA expression": 10.6}, {"smiles": "COc1ccc2c(c1)c(CC(=O)O)c(C)n2C(=O)c1ccc(Cl)cc1", "note": "[Indometacin Sodium]", "inhibition of TGF-beta1-induced alpha-SMA expression": 26.7}, {"smiles": "Nc1nc2ccc(OC(F)(F)F)cc2s1", "note": "[Riluzole]", "inhibition of TGF-beta1-induced alpha-SMA expression": -4}, {"smiles": "CN1CCC(=C2c3ccccc3CCc3cccnc32)CC1", "note": "[Azatadine dimaleate]", "inhibition of TGF-beta1-induced alpha-SMA expression": 38}, {"smiles": "CC(C)(C)NCC(O)COc1cccc2c1CCC(=O)N2", "note": "(stereo not drawn) [Carteolol HCl]", "inhibition of TGF-beta1-induced alpha-SMA expression": -13.2}, {"smiles": "CNC(=O)c1cc(Oc2ccc(NC(=O)Nc3ccc(Cl)c(C(F)(F)F)c3)c(F)c2)ccn1", "note": "[Regorafenib Monohydrate]", "inhibition of TGF-beta1-induced alpha-SMA expression": 90.8}, {"smiles": "CNC(=O)c1cc(Oc2ccc(NC(=O)Nc3ccc(Cl)c(C(F)(F)F)c3)c(F)c2)ccn1", "note": "[Regorafenib (BAY 73-4506)]", "inhibition of TGF-beta1-induced alpha-SMA expression": 34.1}, {"smiles": "CC(=O)NCCCS(=O)(=O)O", "note": "[Acamprosate Calcium]", "inhibition of TGF-beta1-induced alpha-SMA expression": 24.9}, {"smiles": "O=C(O)c1cc(/N=N/c2ccc(O)c(C(=O)O)c2)ccc1O", "note": "[Olsalazine Sodium]", "inhibition of TGF-beta1-induced alpha-SMA expression": -0.725}, {"smiles": "COCCCN1CCC(NC(=O)c2cc(Cl)c(N)c3c2OCC3)CC1", "note": "[Prucalopride]", "inhibition of TGF-beta1-induced alpha-SMA expression": 5.25}, {"smiles": "COCCCN1CCC(NC(=O)c2cc(Cl)c(N)c3c2OCC3)CC1", "note": "[Prucalopride Succinate]", "inhibition of TGF-beta1-induced alpha-SMA expression": 63}, {"smiles": "COC(=O)C1=C(C#N)NC(C)=C(C(=O)OC(C)C)C1c1cccc([N+](=O)[O-])c1", "note": "(stereo not drawn) [Nilvadipine]", "inhibition of TGF-beta1-induced alpha-SMA expression": 14.6}, {"smiles": "C[C@H](CCC(=O)O)[C@H]1CC[C@H]2[C@@H]3[C@@H](O)C[C@@H]4C[C@H](O)CC[C@]4(C)[C@H]3CC[C@]12C", "note": "[Ursodiol]", "inhibition of TGF-beta1-induced alpha-SMA expression": 29.2}, {"smiles": "CC[C@H](C)[C@H](NC(=O)[C@H](Cc1ccc(O)cc1)NC(=O)[C@@H](NC(=O)[C@H](CCCN=C(N)N)NC(=O)[C@@H](N)CC(=O)O)C(C)C)C(=O)N[C@@H](Cc1cnc[nH]1)C(=O)N1CCC[C@H]1C(=O)N[C@@H](Cc1ccccc1)C(=O)O", "note": "[Angiotensin II human Acetate]", "inhibition of TGF-beta1-induced alpha-SMA expression": 12}]}]}
